Reference: PubChem BioAssay AID504467 (National Center for Advancing Translational Sciences (NCATS), 2011)
Among all 330,000 compounds or so, about 7,700 (2.3%) were called active. The shares of active, inactive and inconclusive entries below differ from those in the screen. Calls come from the whole dose curve; as a rule, active = well fitted inhibition curve with a large enough effect; inconclusive = small, poorly fitted or top-dose-only effect, or effect the other way; inactive = flat fitted curve, though single readings scatter. Where the call is inconclusive, the potency comes from a doubtful curve fit.

assay: qHTS screen for small molecules that inhibit ELG1-dependent DNA repair in human embryonic kidney (HEK293T) cells expressing luciferase-tagged ELG1; conditions: HEK293T ELG1-luciferase reporter, luminescence, 16 h, DNA damage induced by 5-fluorouridine; series mostly up to 46.1 µM; note: nearly all actives have a fitted effect of over 55% in size
Procedure, shortened: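 Luminescence from the luciferase reporter, measured 30 min after ONE-Glo reagent at room temperature, was the read-out. Beforehand, 2,000 cells per well were exposed for 16 hr at 37 °C to 5-fluorouridine together with compound or vehicle.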
Potency is the fitted concentration of half-maximal effect.

Row | SMILES | Potency
1 | COc1cccc(NC(=S)N(CCc2nc3cc(C)c(C)cc3[nH]2)Cc2cccnc2)c1 | inconclusive: 11.6 µM [inhibitor, partial curve, poor fit]
2 | COc1cccc(-c2nn(C)c3sc(C(=O)N4CCN(c5ccccc5)CC4)cc23)c1 | inconclusive: 10.3 µM [inhibitor, single point]
3 | CN(C)c1ccc(/C=C/C(=O)c2cc(Cl)ccc2O)cc1 | inconclusive: 23.1 µM [activator, single point]
4 | CCCn1nc(Oc2nc(N(C)C)nc(N(C)C)n2)ccc1=O | inconclusive: 16.4 µM [activator, partial curve, poor fit]
5 | CCOC(=O)Cc1csc(NC(=O)CSc2nnc(-n3nc(C)cc3C)c3ccccc23)n1 | inconclusive: 14.6 µM [inhibitor, partial curve, poor fit]
6 | COc1cc(C(=O)NCC2CCCO2)ccc1OCc1ccccc1 (centres undefined) | inconclusive: 3.66 µM [inhibitor, partial curve, poor fit]
7 | C/C(=N\NC(=O)c1nn(C)c(C)c1Br)c1ccc(NC(=O)C2CCCC2)cc1 | inconclusive: 10.3 µM [activator, partial curve]
8 | CCOc1ccc(NC(=O)CCc2c(C)nn(-c3ccc(N4CCCCC4)nn3)c2C)cc1 | inconclusive: 2.59 µM [activator, full curve, poor fit]
9 | CCOc1ccc(OCCCCn2cnc3ccccc3c2=O)cc1 | active: 16.4 µM
10 | CC1(C)C=C2[C@H]3CC[C@@H]4[C@@]5(C)CCC(=O)C(C)(C)[C@@H]5CC[C@@]4(C)[C@]3(C)CC[C@@]2(C(=O)O)CC1 | inconclusive: 18.4 µM [inhibitor, single point]
11 | COc1cccc(NC(=S)NCCN2CCOCC2)c1 | inactive
12 | O=C(CCC1CCCC1)Nc1ccc(OCC(=O)N2CCOCC2)cc1 | inconclusive: 23.1 µM [activator, single point]
13 | Cc1cccc2c(=O)c(C(=O)NCCc3ccccc3)c[nH]c12 | inconclusive: 18.3 µM [activator, partial curve, poor fit]
14 | COc1ccccc1Nc1cc(C)nc(Nc2ccccc2OC)n1 | inconclusive: 29.1 µM [inhibitor, single point]
15 | CCC(C(=O)OC(C)C(=O)Nc1ccc(Cl)cn1)c1ccccc1 (centres undefined) | inactive
16 | Cn1c(SCC(=O)c2ccc3c(c2)OCO3)nnc1C1COc2ccccc2O1 (centres undefined) | inactive
17 | CCSC1=NCCN1C(=O)C(C)(C)Oc1ccc(Cl)cc1 | inactive
18 | C(=N\n1cnnc1)/c1ccccc1OCCOc1ccccc1 | inconclusive: 20.6 µM [activator, single point]
19 | Cc1ccc2c(COC(=O)c3n[nH]c4ccccc34)cc(=O)oc2c1 | inconclusive: 5.8 µM [activator, partial curve]
20 | Cc1nn(CCc2nn[nH]n2)c2nc(C(F)(F)F)cc(C(F)(F)F)c12 | inconclusive: 29.1 µM [inhibitor, single point]
21 | CCOC(=O)C1=C(C)Nc2ccccc2N=C1NC(=O)C(c1ccccc1)c1ccccc1 | inconclusive: 25.9 µM [inhibitor, single point]
22 | O=C(CSc1nnc(Nc2ccccc2)s1)NCCN1C(=O)CSC1=O | inconclusive: 14.6 µM [activator, partial curve, poor fit]
23 | CCCCCCSc1cc(-c2nc3cnccn3c2NCCCC)ccc1OC | inconclusive: 18.3 µM [inhibitor, partial curve]

Row | SMILES | Potency
24 | COc1cc2cc(CN(CCN3CCCC3)C(=O)Nc3ccc(F)cc3)c(=O)[nH]c2cc1OC | inactive
25 | Cc1cccc(NC(=O)CSc2nc3ccccc3nc2N2CCCC2)c1 | inconclusive: 14.6 µM [activator, partial curve]
26 | C=C(C)C(=O)Nc1cccc(C2=NOC3(C2)C[C@@H](C(N)=O)N(C(=O)/C(C)=C/C)C3)c1 (some centres undefined) | inactive
27 | CCO/C=N/Nc1nc(C(F)(F)F)nc2c1cnn2Cc1ccccc1 | inconclusive: 29.1 µM [inhibitor, single point]
28 | CCC1(C)Cc2c(sc3nc(NC)n(C)c(=O)c23)CO1 (centres undefined) | inconclusive: 1.03 µM [inhibitor, single point]
29 | CC(=O)Nc1ccc(NC(=O)Nc2ccc3c(c2)N(C)C(=O)CS3)cc1 | inconclusive: 16.4 µM [inhibitor, single point]
30 | Cc1ccsc1/C=N/n1c(-c2ccccc2)n[nH]c1=S | inactive
31 | Cc1ccc2[nH]c(=O)c3cc(C(=O)NCCN4CCN(C)CC4)sc3c2c1 | inconclusive: 13 µM [activator, partial curve, poor fit]
32 | COc1ccc2nc(N3CCCC3)c(C#N)cc2c1 | inconclusive: 23.1 µM [activator, partial curve]
33 | Cc1cc(SCc2ccccc2Cl)nc(=O)[nH]1 | inactive
34 | O=C(CSC1=N/C(=C/c2ccc(Cl)c(Cl)c2)C(=O)N1c1ccccc1F)NC1CC1 | inconclusive: 18.4 µM [inhibitor, partial curve]
35 | COc1ccc(/C=N/NC(=O)c2[nH]c3ccc(Br)cc3c2-c2ccccc2)cc1 | inactive
36 | Cc1ccc(S(=O)(=O)N2CCN(C(=O)C3CCN(C(=O)c4ccc(F)cc4)CC3)CC2)c(C)c1 | inconclusive: 18.3 µM [inhibitor, single point]
37 | C[C@@H]1CN([C@@H](C)CO)C(=O)c2cc(NC(=O)CCC(F)(F)F)ccc2O[C@H]1CN(C)S(=O)(=O)c1ccc(Cl)cc1 | inactive
38 | O=C(O)c1ccccc1NS(=O)(=O)c1cccc(-n2sc3ccccc3c2=O)c1 | inactive
39 | N#C/C(=C/c1ccc(N2CCCCC2)o1)c1cccc(F)c1 | inconclusive: 16.4 µM [activator, partial curve]
40 | C=CCN(c1ccccc1)S(=O)(=O)c1cccc(C(=O)Nc2ccncc2)c1 | inconclusive: 29.1 µM [inhibitor, single point]
41 | O=CN/N=C/c1c(O)ccc2ccccc12 | active: 20.6 µM
42 | COc1ccc(N=C2S/C(=C\c3cc(C)n(C)c3C)C(=O)N2C)cc1 | inconclusive: 18.4 µM [inhibitor, single point]
43 | Cc1ccc(C(=O)N/N=C\c2cc3c(cc2Br)OCO3)cn1 | inactive
44 | CC(C)(CC(=O)O)CC(=O)NCc1c(Cl)cccc1Oc1ccccc1 | inconclusive: 29.1 µM [activator, single point]
45 | O=C(COCc1ccccc1)N[C@@H]1c2ccccc2CC[C@@H]1OCc1ccccc1 | inconclusive: 29.1 µM [inhibitor, single point]
46 | O=C(CN1CCN(C(=O)c2ccccc2)CC1)Nc1ccc(Br)cn1 | inconclusive: 25.9 µM [inhibitor, single point]

Entries shown so far that have a COOH group, in the order listed:
Row | SMILES | Potency
10 | CC1(C)C=C2[C@H]3CC[C@@H]4[C@@]5(C)CCC(=O)C(C)(C)[C@@H]5CC[C@@]4(C)[C@]3(C)CC[C@@]2(C(=O)O)CC1 | inconclusive: 18.4 µM [inhibitor, single point]
38 | O=C(O)c1ccccc1NS(=O)(=O)c1cccc(-n2sc3ccccc3c2=O)c1 | inactive
44 | CC(C)(CC(=O)O)CC(=O)NCc1c(Cl)cccc1Oc1ccccc1 | inconclusive: 29.1 µM [activator, single point]

Remaining list, next part

Row | SMILES | Potency
47 | CC1CCc2c(C(=O)NCc3cccnc3)csc2C1 (centres undefined) | inconclusive: 16.4 µM [activator, partial curve]
48 | S=C(c1ccc(N2CCOCC2)cc1)N1CCOCC1 | inconclusive: 14.6 µM [activator, partial curve, poor fit]
49 | O=c1oc2ccc(Cl)cc2nc1/C=C(\O)c1ccco1 | inconclusive: 16.4 µM [inhibitor, partial curve, poor fit]
50 | Cc1ccc(-c2cc(C(F)F)n3ncc(C(=O)N4CCCCC4c4cccnc4)c3n2)cc1 (centres undefined) | active: 18.3 µM
51 | CN(C)S(=O)(=O)c1ccc(C(=O)NCCS(=O)(=O)N2CCN(c3ccc(F)cc3)CC2)cc1 | inactive
52 | CCc1ccc(C2=Nn3c(nnc3-c3cccs3)SC2)cc1 | inactive
53 | Cc1ccc(C2=NS(=O)(=O)N(C)C(C(=O)N3CCOCC3)=C2)cc1 | inactive
54 | CCN(CC(=O)Nc1c(F)cccc1F)C(=O)CCc1nc2cc(S(=O)(=O)N(C)C)ccc2n1CC | inactive
55 | CNC1=C(N(C(C)=O)c2ccc(Br)cc2)C(=O)c2ccccc2C1=O | active: 3.66 µM
56 | Cc1ccc(N(CC(=O)Nc2ccc3c(c2)OCCO3)S(=O)(=O)c2c(C)noc2C)cc1 | active: 16.4 µM
57 | CCN(CC)C(=S)SCC(=O)Nc1nc(=O)c2ccccc2s1 | inconclusive: 16.4 µM [activator, single point]
58 | ClCc1cc2ccccc2nc1Cl | inactive
59 | COCCNc1nc(-c2ccccc2)nc2c1oc1ccccc12 | inconclusive: 18.3 µM [inhibitor, single point]
60 | Cc1ccc2cc(CN(C(=O)c3cccs3)c3ccccc3)c(=O)[nH]c2c1 | inconclusive: 0.0018 µM [inhibitor, full curve, poor fit]
61 | COc1ccc(NC(=O)NNC(=O)c2cc(C3CC3)nc3ccccc23)c(OC)c1 | active: 13 µM
62 | O=C(c1ccccc1)c1ccc(-n2cnnc2)c([N+](=O)[O-])c1 | inactive
63 | COc1ccc(NC(=O)c2ccc(Br)c(S(=O)(=O)N3CCOCC3)c2)cc1 | inconclusive: 16.4 µM [inhibitor, partial curve]
64 | Cc1cccc(N2CN(Cc3ccco3)CNC2=S)c1 | inactive
65 | COc1cc(OC)cc(C(=O)N(Cc2nc(-c3cccc(C)c3)no2)C(C)C)c1 | inconclusive: 29.1 µM [inhibitor, single point]
66 | Cc1ccc(NC(=O)c2cnc(SCC(=O)NCC3CCCO3)n(C)c2=O)cc1C (centres undefined) | inconclusive: 25.9 µM [activator, single point]
67 | COc1cc(CC(=O)Nc2nccs2)cc(OC)c1OC | inactive
68 | O=CN1CCCN(Cc2nc(-c3cccc(Cl)c3)no2)CC1 | inconclusive: 18.3 µM [activator, single point]
69 | CCOc1cc(N2CCOCC2)c(OCC)cc1NC(=O)C(NC(=O)c1ccco1)C(C)C (centres undefined) | inconclusive: 25.9 µM [inhibitor, partial curve, poor fit]
